Data taken from paper PMC8179927.
No constants are given. Whether binding was seen depends on the method and setting. In cells and extracts the contact can be indirect. Some entries that bind do so weakly or less than the wild type.

Tests used:
Assay in all cases: co-IP; whole cell lysates (2 mg) of CL1-0 or H1355 cells with forced expression of PGK1 (wild type or mutant) or vector control, incubated overnight in IP buffer with protein A/G magnetic beads and antibodies against PGK1 or HTATSF1; western blot of HTATSF1 and PGK1; the legends call it a pull-down assay using beads
PGK1 D285V (human) = target: T1, PGK1 D285V (human) (UniProt P00558)
T1 sequence: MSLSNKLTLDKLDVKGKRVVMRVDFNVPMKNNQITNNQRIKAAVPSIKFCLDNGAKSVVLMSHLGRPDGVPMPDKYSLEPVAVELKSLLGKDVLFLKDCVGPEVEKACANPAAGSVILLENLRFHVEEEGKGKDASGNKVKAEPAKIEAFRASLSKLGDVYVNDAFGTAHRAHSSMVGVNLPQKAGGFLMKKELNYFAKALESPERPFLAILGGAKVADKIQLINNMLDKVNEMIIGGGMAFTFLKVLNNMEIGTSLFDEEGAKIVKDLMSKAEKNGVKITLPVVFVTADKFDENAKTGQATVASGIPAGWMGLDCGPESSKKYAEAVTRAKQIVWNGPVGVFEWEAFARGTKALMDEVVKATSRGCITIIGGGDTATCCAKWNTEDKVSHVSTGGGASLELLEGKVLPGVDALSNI

PGK1 I253T (human) = target: T2, PGK1 I253T (human) (UniProt P00558)
T2 sequence: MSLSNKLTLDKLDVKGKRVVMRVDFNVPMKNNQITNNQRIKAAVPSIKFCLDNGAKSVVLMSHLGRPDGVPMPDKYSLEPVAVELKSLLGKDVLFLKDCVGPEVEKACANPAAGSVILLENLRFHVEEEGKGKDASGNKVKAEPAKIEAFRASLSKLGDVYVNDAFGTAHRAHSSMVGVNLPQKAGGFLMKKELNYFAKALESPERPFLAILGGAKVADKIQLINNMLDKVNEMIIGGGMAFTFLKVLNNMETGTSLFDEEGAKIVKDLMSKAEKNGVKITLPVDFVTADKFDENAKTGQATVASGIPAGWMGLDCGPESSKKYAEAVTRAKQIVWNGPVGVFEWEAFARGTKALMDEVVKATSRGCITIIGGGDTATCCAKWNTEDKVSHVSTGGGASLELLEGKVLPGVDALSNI

PGK1 K191del (human) = target: T3, PGK1 K191del (human) (UniProt P00558)
T3 sequence: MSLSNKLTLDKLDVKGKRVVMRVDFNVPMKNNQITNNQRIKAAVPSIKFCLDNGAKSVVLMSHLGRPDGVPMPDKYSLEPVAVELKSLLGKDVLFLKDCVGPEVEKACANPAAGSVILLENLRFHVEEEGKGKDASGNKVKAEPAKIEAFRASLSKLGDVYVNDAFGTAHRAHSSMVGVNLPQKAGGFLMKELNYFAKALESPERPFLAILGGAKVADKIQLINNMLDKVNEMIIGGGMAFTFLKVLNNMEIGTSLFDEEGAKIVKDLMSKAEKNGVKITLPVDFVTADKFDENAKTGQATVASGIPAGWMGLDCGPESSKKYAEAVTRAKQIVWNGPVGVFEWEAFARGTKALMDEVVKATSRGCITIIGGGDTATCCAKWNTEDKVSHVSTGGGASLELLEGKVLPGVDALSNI

PGK1 V266M (human) = target: T4, PGK1 V266M (human) (UniProt P00558)
T4 sequence: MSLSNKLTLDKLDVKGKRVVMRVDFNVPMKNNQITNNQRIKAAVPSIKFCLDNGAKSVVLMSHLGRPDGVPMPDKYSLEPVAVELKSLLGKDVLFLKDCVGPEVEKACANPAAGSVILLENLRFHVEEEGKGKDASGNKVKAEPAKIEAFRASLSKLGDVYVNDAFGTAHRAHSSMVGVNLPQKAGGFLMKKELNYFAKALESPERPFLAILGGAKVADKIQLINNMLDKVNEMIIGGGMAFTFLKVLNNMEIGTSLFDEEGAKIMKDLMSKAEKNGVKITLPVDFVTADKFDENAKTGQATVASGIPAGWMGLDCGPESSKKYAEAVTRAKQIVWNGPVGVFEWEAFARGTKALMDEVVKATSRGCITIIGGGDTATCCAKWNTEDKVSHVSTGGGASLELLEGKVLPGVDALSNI

[1] = target: T5, Phosphoglycerate kinase 1 (PGK1), wild type, exogenous (human) (UniProt P00558)
T5 sequence: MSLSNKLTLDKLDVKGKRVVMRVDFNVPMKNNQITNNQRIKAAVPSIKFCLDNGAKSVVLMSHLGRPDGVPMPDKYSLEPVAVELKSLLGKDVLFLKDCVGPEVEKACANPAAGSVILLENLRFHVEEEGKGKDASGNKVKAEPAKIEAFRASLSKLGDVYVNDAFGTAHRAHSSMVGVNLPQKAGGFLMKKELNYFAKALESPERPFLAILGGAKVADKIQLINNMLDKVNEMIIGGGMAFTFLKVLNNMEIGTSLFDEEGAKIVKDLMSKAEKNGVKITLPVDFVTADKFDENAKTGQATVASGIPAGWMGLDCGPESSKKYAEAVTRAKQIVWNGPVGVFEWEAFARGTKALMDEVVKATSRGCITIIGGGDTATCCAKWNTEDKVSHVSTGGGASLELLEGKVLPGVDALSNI

Measured: binding

B1: HIV-1 Tat Specific Factor 1 (HTATSF1) (protein, UniProt O43719 1-755)
chain: MSGTNLDGNDEFDEQLRMQELYGDGKDGDTQTDAGGEPDSLGQQPTDTPYEWDLDKKAWFPKITEDFIATYQANYGFSNDGASSSTANVEDVHARTAEEPPQEKAPEPTDARKKGEKRKAESGWFHVEEDRNTNVYVSGLPPDITVDEFIQLMSKFGIIMRDPQTEEFKVKLYKDNQGNLKGDGLCCYLKRESVELALKLLDEDEIRGYKLHVEVAKFQLKGEYDASKKKKKCKDYKKKLSMQQKQLDWRPERRAGPSRMRHERVVIIKNMFHPMDFEDDPLVLNEIREDLRVECSKFGQIRKLLLFDRHPDGVASVSFRDPEEADYCIQTLDGRWFGGRQITAQAWDGTTDYQVEETSREREERLRGWEAFLNAPEANRGLRRSDSVSASERAGPSRARHFSEHPSTSKMNAQETATGMAFEEPIDEKKFEKTEDGGEFEEGASENNAKESSPEKEAEEGCPEKESEEGCPKRGFEGSCSQKESEEGNPVRGSEEDSPKKESKKKTLKNDCEENGLAKESEDDLNKESEEEVGPTKESEEDDSEKESDEDCSEKQSEDGSEREFEENGLEKDLDEEGSEKELHENVLDKELEENDSENSEFEDDGSEKVLDEEGSEREFDEDSDEKEEEEDTYEKVFDDESDEKEDEEYADEKGLEAADKKAEEGDADEKLFEESDDKEDEDADGKEVEDADEKLFEDDDSNEKLFDEEEDSSEKLFDDSDERGTLGGFGSVEEGPLSTGSSFILSSDDDDDDI
binds: PGK1 D285V (human) | PGK1 I253T (human) | PGK1 K191del (human) | PGK1 V266M (human) | [1]
